PubChem BioAssay AID686938 | Drosophila RNAi Screening Center – 2013
The deposit covers about 23,000 reagents; this is a random part of those with a known target gene and a result. Of all reagents, 75 (0.33%) were called active. 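Raw plate signals without normalisation; calls rest on plate z-scores that were not deposited; ratio present for only 364 wells.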 Names joined by + are all predicted targets of the reagent. The record does not give: the dose of the treatment.

Test: 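Fly genes required for calcium entry once internal stores are emptied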 (primary screen)
Cell system: Drosophila S2R+ cells
Reagent: long dsRNA against Drosophila genes, about 0.25 µg dsRNA per well, roughly 10,000 cells
Duration: 5 days of knock-down before the calcium assay
Challenge: thapsigargin (SERCA pump blocker) to empty calcium stores; entry signal taken 4 min after adding it
Measurement: 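Duplicate raw fluo-4 intensities per well from a plate reader, at rest and four minutes after thapsigargin emptied calcium stores; entry-to-rest ratio filled for only some wells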
Direction: calcium entry signal: higher = stronger calcium signal after store depletion; resting calcium signal: higher = higher resting calcium signal
Active means: 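Called when the plate z-score of the entry-to-rest ratio, mean of duplicates, falls below −3; wells with low overall dye signal (Fmax z below −2) or more than five off-targets excluded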
Meaning of the calls: active = strongly reduced calcium entry; inactive = no strong reduction

| target | PubChem SID | calcium entry signal, replicate 1 (fluorescence units) | calcium entry signal, replicate 2 (fluorescence units) | resting calcium signal, replicate 1 (fluorescence units) | resting calcium signal, replicate 2 (fluorescence units) | outcome |
| --- | --- | --- | --- | --- | --- | --- |
| dgt1 | SID104195093 | 4.18e7 | 4.35e7 | 2.47e7 | 2.37e7 | inactive |
| CG42500 | SID104194614 | 1.80e7 | 3.11e7 | 1.02e7 | 5.90e7 | inactive |
| BuGZ | SID104182434 | 3.33e7 | – | 1.81e7 | – | inactive |
| BuGZ | SID104182435 | 3.47e7 | 2.29e7 | 1.69e7 | 1.09e7 | inactive |
| CG9689 | SID104198232 | 4.01e7 | 4.05e7 | 1.89e7 | 1.79e7 | inactive |
| eIF2Bgamma | SID104186892 | 2.59e7 | 2.37e7 | 1.17e7 | 1.52e7 | inactive |
| CG3165 | SID104180365 | 3.98e7 | – | 1.98e7 | – | inactive |
| scra | SID104187471 | 1.57e7 | 2.06e7 | 9.75e6 | 1.04e7 | inactive |
| asRNA:CR31514 + CG12947 | SID104194367 | 4.19e7 | 3.58e7 | 2.08e7 | 1.75e7 | inactive |
| PMCA | SID104196905 | 2.46e7 | 3.53e7 | 1.17e7 | 1.39e7 | inactive |
| PMCA | SID104196906 | 2.12e7 | 2.50e7 | 1.32e7 | 1.48e7 | inactive |
| PMCA | SID104196946 | 4.89e7 | 4.07e7 | 4.03e7 | 3.21e7 | inactive |
| CG5664 | SID104191574 | 7.22e7 | 2.89e7 | 2.98e7 | 1.48e7 | inactive |

Laid out differently: results already given
CG42500 [SID104194614] — calcium entry signal, replicate 1 (fluorescence units): 1.80e7; calcium entry signal, replicate 2 (fluorescence units): 3.11e7; resting calcium signal, replicate 1 (fluorescence units): 1.02e7; resting calcium signal, replicate 2 (fluorescence units): 5.90e7; outcome: inactive
BuGZ [SID104182434] — calcium entry signal, replicate 1 (fluorescence units): 3.33e7; resting calcium signal, replicate 1 (fluorescence units): 1.81e7; outcome: inactive
BuGZ [SID104182435] — calcium entry signal, replicate 1 (fluorescence units): 3.47e7; calcium entry signal, replicate 2 (fluorescence units): 2.29e7; resting calcium signal, replicate 1 (fluorescence units): 1.69e7; resting calcium signal, replicate 2 (fluorescence units): 1.09e7; outcome: inactive
CG9689 [SID104198232] — calcium entry signal, replicate 1 (fluorescence units): 4.01e7; calcium entry signal, replicate 2 (fluorescence units): 4.05e7; resting calcium signal, replicate 1 (fluorescence units): 1.89e7; resting calcium signal, replicate 2 (fluorescence units): 1.79e7; outcome: inactive

Next reagents follow.
| target | PubChem SID | calcium entry signal, replicate 1 (fluorescence units) | calcium entry signal, replicate 2 (fluorescence units) | resting calcium signal, replicate 1 (fluorescence units) | resting calcium signal, replicate 2 (fluorescence units) | outcome |
| --- | --- | --- | --- | --- | --- | --- |
| Damm | SID104187185 | 3.08e7 | 4.61e7 | 1.71e7 | 1.99e7 | inactive |
| BomT2 | SID104186423 | 4.41e7 | 5.56e7 | 1.83e7 | 2.48e7 | inactive |
| CG31559 | SID104191964 | 5.39e7 | 3.70e7 | 2.48e7 | 1.58e7 | inactive |
| CG31559 | SID104192062 | 4.91e7 | 3.80e7 | 2.32e7 | 1.78e7 | inactive |
| klhl10 | SID104185066 | 5.07e7 | 4.68e7 | 2.33e7 | 2.32e7 | inactive |
| klhl10 | SID104198963 | 3.42e7 | 3.71e7 | 1.65e7 | 1.83e7 | inactive |
| klhl10 | SID104200542 | 3.46e7 | 4.84e7 | 1.86e7 | 2.17e7 | inactive |
| klhl10 | SID104200717 | 2.36e7 | 3.72e7 | 1.34e7 | 1.58e7 | inactive |
| dpr8 | SID104199198 | 3.08e7 | 3.72e7 | 1.64e7 | 1.68e7 | inactive |
| dpr8 | SID104199392 | 3.33e7 | 3.48e7 | 1.77e7 | 1.69e7 | inactive |
| dpr8 | SID104199730 | 2.80e7 | 3.08e7 | 1.53e7 | 1.48e7 | inactive |
| dpr8 | SID104199731 | 2.88e7 | 3.40e7 | 1.50e7 | 1.42e7 | inactive |
